These are yes or no findings as the source states them, for the method shown. Binding seen in cells or lysates may run through a third protein. These calls come from enrichment with a bait or labelling near it, and not all partners need be listed.
Biological target: FLAG-tagged NFIB (UniProt O00712)
Assay: affinity purification with mass spectrometry; cellular extracts of U2OS stably expressing FLAG-NFIB on anti-FLAG M2 affinity gel, eluted with FLAG peptide (0.2 mg/ml), SDS-PAGE, silver stain, bands analysed by LC-MS/MS

The chains behind the UniProt entries cited, without tags or fusion partners.
UniProt P35579: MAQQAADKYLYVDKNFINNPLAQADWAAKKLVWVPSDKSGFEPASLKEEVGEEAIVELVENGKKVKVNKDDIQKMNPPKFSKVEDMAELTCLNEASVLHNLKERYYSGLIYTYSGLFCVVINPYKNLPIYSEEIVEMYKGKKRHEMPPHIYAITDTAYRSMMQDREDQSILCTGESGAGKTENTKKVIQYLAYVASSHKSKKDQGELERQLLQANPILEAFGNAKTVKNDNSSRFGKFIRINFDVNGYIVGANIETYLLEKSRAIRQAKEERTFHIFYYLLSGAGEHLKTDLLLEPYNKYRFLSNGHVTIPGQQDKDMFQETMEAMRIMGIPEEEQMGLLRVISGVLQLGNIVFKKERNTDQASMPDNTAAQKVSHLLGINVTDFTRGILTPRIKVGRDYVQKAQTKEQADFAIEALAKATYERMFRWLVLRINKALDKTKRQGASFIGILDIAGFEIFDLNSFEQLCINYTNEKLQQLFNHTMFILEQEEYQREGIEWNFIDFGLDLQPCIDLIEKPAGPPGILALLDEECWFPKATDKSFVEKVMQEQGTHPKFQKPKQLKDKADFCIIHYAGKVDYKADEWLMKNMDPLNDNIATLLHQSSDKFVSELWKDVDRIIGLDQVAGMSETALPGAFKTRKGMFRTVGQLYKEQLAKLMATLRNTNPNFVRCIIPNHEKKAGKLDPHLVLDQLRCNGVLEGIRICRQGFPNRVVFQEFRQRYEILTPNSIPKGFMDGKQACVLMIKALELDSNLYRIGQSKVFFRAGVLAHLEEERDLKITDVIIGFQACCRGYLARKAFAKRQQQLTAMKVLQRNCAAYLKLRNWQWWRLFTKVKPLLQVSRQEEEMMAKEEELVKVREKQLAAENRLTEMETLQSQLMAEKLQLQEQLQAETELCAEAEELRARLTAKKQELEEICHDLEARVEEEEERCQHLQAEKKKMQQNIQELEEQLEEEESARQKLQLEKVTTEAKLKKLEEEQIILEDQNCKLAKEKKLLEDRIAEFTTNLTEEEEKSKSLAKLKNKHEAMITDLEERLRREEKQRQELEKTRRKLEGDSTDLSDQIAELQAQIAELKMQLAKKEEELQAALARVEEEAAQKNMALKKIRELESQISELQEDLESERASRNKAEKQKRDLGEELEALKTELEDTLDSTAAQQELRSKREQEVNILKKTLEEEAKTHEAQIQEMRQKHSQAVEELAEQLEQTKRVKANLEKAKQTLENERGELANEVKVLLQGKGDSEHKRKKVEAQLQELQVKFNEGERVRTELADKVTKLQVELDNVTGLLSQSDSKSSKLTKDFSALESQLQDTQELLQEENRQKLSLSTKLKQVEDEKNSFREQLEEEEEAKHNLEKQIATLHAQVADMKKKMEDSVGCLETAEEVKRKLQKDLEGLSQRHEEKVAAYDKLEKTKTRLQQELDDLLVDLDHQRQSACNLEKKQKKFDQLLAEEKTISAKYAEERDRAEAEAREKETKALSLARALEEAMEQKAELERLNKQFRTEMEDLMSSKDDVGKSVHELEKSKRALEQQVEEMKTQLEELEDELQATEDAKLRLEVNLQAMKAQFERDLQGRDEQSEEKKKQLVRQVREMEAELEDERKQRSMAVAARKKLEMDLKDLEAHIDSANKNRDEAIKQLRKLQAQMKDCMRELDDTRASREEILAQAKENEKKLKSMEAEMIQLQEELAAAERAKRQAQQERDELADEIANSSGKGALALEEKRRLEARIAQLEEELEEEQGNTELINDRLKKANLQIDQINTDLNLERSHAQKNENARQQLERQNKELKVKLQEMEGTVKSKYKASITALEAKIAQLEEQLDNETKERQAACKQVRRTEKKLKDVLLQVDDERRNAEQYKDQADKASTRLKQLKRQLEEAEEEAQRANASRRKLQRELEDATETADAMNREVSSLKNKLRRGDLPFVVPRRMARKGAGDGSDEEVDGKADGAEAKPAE

Molecule	binding
SPT16 (from UniProt Q9Y5B9 1-1047)	binds
MYH9 (from UniProt P35579 1-1960)	binds
MCM6 (endogenous) (protein, UniProt Q14566 1-821) MDLAAAAEPGAGSQHLEVRDEVAEKCQKLFLDFLEEFQSSDGEIKYLQLAEELIRPERNTLVVSFVDLEQFNQQLSTTIQEEFYRVYPYLCRALKTFVKDRKEIPLAKDFYVAFQDLPTRHKIRELTSSRIGLLTRISGQVVRTHPVHPELVSGTFLCLDCQTVIRDVEQQFKYTQPNICRNPVCANRRRFLLDTNKSRFVDFQKVRIQETQAELPRGSIPRSLEVILRAEAVESAQAGDKCDFTGTLIVVPDVSKLSTPGARAETNSRVSGVDGYETEGIRGLRALGVRDLSYRLVFLACCVAPTNPRFGGKELRDEEQTAESIKNQMTVKEWEKVFEMSQDKNLYHNLCTSLFPTIHGNDEVKRGVLLMLFGGVPKTTGEGTSLRGDINVCIVGDPSTAKSQFLKHVEEFSPRAVYTSGKASSAAGLTAAVVRDEESHEFVIEAGALMLADNGVCCIDEFDKMDVRDQVAIHEAMEQQTISITKAGVKATLNARTSILAAANPISGHYDRSKSLKQNINLSAPIMSRFDLFFILVDECNEVTDYAIARRIVDLHSRIEESIDRVYSLDDIRRYLLFARQFKPKISKESEDFIVEQYKHLRQRDGSGVTKSSWRITVRQLESMIRLSEAMARMHCCDEVQPKHVKEAFRLLNKSIIRVETPDVNLDQEEEIQMEVDEGAGGINGHADSPAPVNGINGYNEDINQESAPKASLRLGFSEYCRISNLIVLHLRKVEEEEDESALKRSELVNWYLKEIESEIDSEEELINKKRIIEKVIHRLTHYDHVLIELTQAGLKGSTEGSESYEEDPYLVVNPNYLLED	binds

More lines, now with the values ahead:

binding	Molecule
binds	RPA1 (from UniProt P27694 1-616)
binds	SSRP1 (from UniProt Q08945 1-709)
